Measurements: patent US20130079280A1
No constants are given. Whether binding was seen depends on the method and setting. Some binding calls cover weakened binding; strength is not graded here.

The chains behind the UniProt entries cited, without tags or fusion partners. Residues count along the entry.
UniProt O14763, residues 54-182: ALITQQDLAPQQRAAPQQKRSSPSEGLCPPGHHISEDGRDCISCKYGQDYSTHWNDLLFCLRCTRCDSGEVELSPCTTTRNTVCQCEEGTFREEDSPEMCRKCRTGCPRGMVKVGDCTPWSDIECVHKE
UniProt P29965, residues 113-261: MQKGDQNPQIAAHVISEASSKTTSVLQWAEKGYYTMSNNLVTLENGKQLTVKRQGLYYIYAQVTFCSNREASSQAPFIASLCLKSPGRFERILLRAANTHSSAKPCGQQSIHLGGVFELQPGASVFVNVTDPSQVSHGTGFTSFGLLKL
UniProt P27548, residues 112-260: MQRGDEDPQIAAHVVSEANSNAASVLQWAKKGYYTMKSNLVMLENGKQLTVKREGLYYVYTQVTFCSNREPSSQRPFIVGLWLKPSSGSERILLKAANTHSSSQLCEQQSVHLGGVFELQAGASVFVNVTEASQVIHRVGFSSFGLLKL

Assays:
[1] = target: TRAIL R2, recombinant (format not stated) (human) (UniProt O14763); experiment: capture ELISA; Tn3 captured on anti-His, biotinylated TRAIL R2
[2] = target: human TRAIL R2-Fc fusion protein (human) (UniProt O14763); experiment: competition ELISA: plate coated with A9(1C12), 0.75 nM biotinylated TRAIL R2-Fc, competitor titrated, streptavidin-HRP/TMB
[3] = target: human TRAIL R2-Fc fusion protein (human) (UniProt O14763); experiment: capture ELISA: His-tagged construct captured from E. coli media on anti-His antibody, biotinylated TRAIL R2 (axis: TrailR2-Fc) titrated, streptavidin-HRP/TMB
[4] = target: Human CD40L, recombinant (E. coli produced) (human) (UniProt P29965); experiment: capture ELISA
[5] = target: TRAIL R2, recombinant (format not stated) (human) (UniProt O14763); experiment: capture ELISA
[6] = target: Human CD40L, recombinant (E. coli produced) (human) (UniProt P29965); experiment: capture ELISA; Tn3 captured on anti-His, HuCD40L/biotinylated anti-His complex
[7] = target: Human CD40L, recombinant (E. coli produced) (human) (UniProt P29965); experiment: AlphaScreen
[8] = target: human TRAIL R2-Fc fusion protein (human) (UniProt O14763); experiment: AlphaScreen
[9] = target: Human CD40L, recombinant (E. coli produced) (human) (UniProt P29965); experiment: capture ELISA: His-tagged construct captured from E. coli media on anti-His antibody, His-tagged HuCD40L preincubated with biotinylated anti-His antibody titrated, streptavidin-HRP/TMB
[10] = target: Human CD40L, recombinant (E. coli produced) (human) (UniProt P29965); experiment: AlphaScreen; 10 nM TRAIL R2-Fc and 50 nM biotinylated HuCD40L, simultaneous binding
[11] = target: human TRAIL R2-Fc fusion protein (human) (UniProt O14763); experiment: as above
[12] = target: Human CD40L, recombinant (E. coli produced) (human) (UniProt P29965); experiment: AlphaScreen bridging assay: diluted E. coli media, 10 nM TRAIL R2-Fc (Protein A acceptor beads) and 50 nM biotinylated HuCD40L (streptavidin donor beads); signal needs both targets bound at once
[13] = target: human TRAIL R2-Fc fusion protein (human) (UniProt O14763); experiment: as above
[14] = target: recombinant Murine CD40L (E. coli produced) (murine) (UniProt P27548); experiment: SPR competition (GLC chip): 0.5 ug/ml MuCD40L preincubated with the Tn3 construct, binding to immobilised Murine CD40-Fc recorded
[15] = target: recombinant Murine CD40L (E. coli produced) (murine) (UniProt P27548); experiment: SPR competition; 0.5 ug/ml MuCD40L over immobilized Murine CD40-Fc

Measured: binding

B1: A1 (1E11), monovalent TRAIL R2-specific Tn3 scaffold (designed binder)
chain: AIEVKDVTDTTALITWAKPWVDPPPLWGCELAYGIKDVPGDRTTIDLQQKHTAYSIGNLKPDTEYEVSLICFDPYGAKSNPAKETFTTGGGTLGHHHHHHHH
binds: [1] | [2] | [3]

B2: C5 (1E11 & 79), bispecific tandem Tn3, linker length 8 (designed binder)
chain: AIEVKDVTDTTALITWAKPWVDPPPLWGCELAYGIKDVPGDRTTIDLQQKHTAYSIGNLKPDTEYEVSLICFDPYGAKSNPAKETFTTTRLDAPGQIEVKDVTDTTALITWIPPHNADSSIIGCELTYGIKDVPGDRTTIDLYDVAFDYSIGNLKPDTEYEVSLICDTFYGFDSNPAKETFTTGGGTLGHHHHHHHH
not listed: [2] | [14] | [15]
binds: all other assays above

B3: C6 (1E11 & 79), bispecific tandem Tn3, linker length 13 (designed binder)
chain: AIEVKDVTDTTALITWAKPWVDPPPLWGCELAYGIKDVPGDRTTIDLQQKHTAYSIGNLKPDTEYEVSLICFDPYGAKSNPAKETFTTGGGGSRLDAPGQIEVKDVTDTTALITWIPPHNADSSIIGCELTYGIKDVPGDRTTIDLYDVAFDYSIGNLKPDTEYEVSLICDTFYGFDSNPAKETFTTGGGTLGHHHHHHHH
not listed: [2] | [14] | [15]
binds: all other assays above

B4: C7 (1E11 & 79), bispecific tandem Tn3, linker length 18 (designed binder)
chain: AIEVKDVTDTTALITWAKPWVDPPPLWGCELAYGIKDVPGDRTTIDLQQKHTAYSIGNLKPDTEYEVSLICFDPYGAKSNPAKETFTTGGGGSGGGGSRLDAPGQIEVKDVTDTTALITWIPPHNADSSIIGCELTYGIKDVPGDRTTIDLYDVAFDYSIGNLKPDTEYEVSLICDTFYGFDSNPAKETFTTGGGTLGHHHHHHHH
not listed: [2] | [14] | [15]
binds: all other assays above

B5: C8 (1E11 & 79), bispecific tandem Tn3, linker length 23 (designed binder)
chain: AIEVKDVTDTTALITWAKPWVDPPPLWGCELAYGIKDVPGDRTTIDLQQKHTAYSIGNLKPDTEYEVSLICFDPYGAKSNPAKETFTTGGGGSGGGGSGGGGSRLDAPGQIEVKDVTDTTALITWIPPHNADSSIIGCELTYGIKDVPGDRTTIDLYDVAFDYSIGNLKPDTEYEVSLICDTFYGFDSNPAKETFTTGGGTLGHHHHHHHH
not listed: [2] | [14] | [15]
binds: all other assays above

B6: 79, monovalent human CD40L-specific Tn3 (designed binder)
chain: IEVKDVTDTTALITWIPPHNADSSIIGCELTYGIKDVPGDRTTIDLYDVAFDYSIGNLKPDTEYEVSLICDTFYGFDSNPAKETFTTGGGTLGHHHHHHHH
binds: [6] | [9]

B7: A2 (1E11), bivalent linear tandem Tn3 (designed binder)
chain: SGGGGSAIEVKDVTDTTALITWAKPWVDPPPLWGCELAYGIKDVPGDRTTIDLQQKHTAYSIGNLKPDTEYEVSLICFDPYGAKSNPAKETFTTGGGGSGGGGSGGGGSAIEVKDVTDTTALITWAKPWVDPPPLWGCELAYGIKDVPGDRTTIDLQQKHTAYSIGNLKPDTEYEVSLICFDPYGAKSNPAKETFTTGGGGSGGGGSGTLGHHHHHHHH
binds: [2]

B8: A3 (1E11), tetravalent linear tandem Tn3 (designed binder)
chain: SGGGGSAIEVKDVTDTTALITWAKPWVDPPPLWGCELAYGIKDVPGDRTTIDLQQKHTAYSIGNLKPDTEYEVSLICFDPYGAKSNPAKETFTTGGGGSGGGGSGGGGSAIEVKDVTDTTALITWAKPWVDPPPLWGCELAYGIKDVPGDRTTIDLQQKHTAYSIGNLKPDTEYEVSLICFDPYGAKSNPAKETFTTGGGGSGGGGSGGGGSAIEVKDVTDTTALITWAKPWVDPPPLWGCELAYGIKDVPGDRTTIDLQQKHTAYSIGNLKPDTEYEVSLICFDPYGAKSNPAKETFTTGGGGSGGGGSGGGGSAIEVKDVTDTTALITWAKPWVDPPPLWGCELAYGIKDVPGDRTTIDLQQKHTAYSIGNLKPDTEYEVSLICFDPYGAKSNPAKETFTTGGGGSGGGGSGTLGHHHHHHHH
binds: [2]

B9: M13, monovalent murine CD40L-specific Tn3 (designed binder)
chain: AIEVKDVTDTTALITWHDAFGYDFGCELTYGIKDVPGDRTTIDLPDHFHNYSIGNLKPDTEYEVSLICANDHGFDSNPAKETFTTGGGTLGHHHHHHHH
binds: [14]

B10: C1 (M13), bivalent tandem M13-M13, 1 Gly4Ser unit, linker length 13 (designed binder)
chain: AIEVKDVTDTTALITWHDAFGYDFGCELTYGIKDVPGDRTTIDLPDHFHNYSIGNLKPDTEYEVSLICANDHGFDSNPAKETFTTAGGGGSRLDAPGQIEVKDVTDTTALITWHDAFGYDFGCELTYGIKDVPGDRTTIDLPDHFHNYSIGNLKPDTEYEVSLICANDHGFDSNPAKETFTTGGGTLGHHHHHHHH
binds: [14]

B11: C2 (M13), bivalent tandem M13-M13, 3 Gly4Ser units, linker length 23 (designed binder)
chain: AIEVKDVTDTTALITWHDAFGYDFGCELTYGIKDVPGDRTTIDLPDHFHNYSIGNLKPDTEYEVSLICANDHGFDSNPAKETFTTGGGGSGGGGSGGGGSRLDAPGQIEVKDVTDTTALITWHDAFGYDFGCELTYGIKDVPGDRTTIDLPDHFHNYSIGNLKPDTEYEVSLICANDHGFDSNPAKETFTTGGGTLGHHHHHHHH
binds: [15]

B12: C3 (M13), bivalent tandem M13-M13, 5 Gly4Ser units, linker length 33 (designed binder)
chain: AIEVKDVTDTTALITWHDAFGYDFGCELTYGIKDVPGDRTTIDLPDHFHNYSIGNLKPDTEYEVSLICANDHGFDSNPAKETFTTGGGGSGGGGSGGGGSGGGGSGGGGSRLDAPGQIEVKDVTDTTALITWHDAFGYDFGCELTYGIKDVPGDRTTIDLPDHFHNYSIGNLKPDTEYEVSLICANDHGFDSNPAKETFTTGGGTLGHHHHHHHH
binds: [15]

B13: C4 (M13), bivalent tandem M13-M13, 7 Gly4Ser units, linker length 43 (designed binder)
chain: AIEVKDVTDTTALITWHDAFGYDFGCELTYGIKDVPGDRTTIDLPDHFHNYSIGNLKPDTEYEVSLICANDHGFDSNPAKETFTTGGGGSGGGGSGGGGSGGGGSGGGGSGGGGSGGGGSRLDAPGQIEVKDVTDTTALITWHDAFGYDFGCELTYGIKDVPGDRTTIDLPDHFHNYSIGNLKPDTEYEVSLICANDHGFDSNPAKETFTTGGGTLGHHHHHHHH
binds: [15]
